According to patent publication EP4335450A1:
No constants are given. Whether binding was seen depends on the method and setting. Some entries that bind do so weakly or less than the wild type.

Target: human transferrin receptor-Fc tag standard (human) (UniProt P02786)
Experiment: ELISA, hTfR-Fc coated on plate

binding: binds
B1: huHF_Mutant2-dual (protein)
chain: MTTASTSQVRQNYHAASEAAINAQINLELYASYVYLSMSYYFDRDDVALKNFAKYFLHQSHEEREHAEKLMKLQNQRGGRIALADIQKPDCDDGGSYGSLYAFDIWESGLNAMECALHLEKNVNQSLLALHALATAKNDPHLCDFIETHYLNEQVKAIKELGDHVTNLRKMGAPESGLAEYLFDKHTLGDSDNESMPSFITLASLSTWEGYFDF
